Experimental data: PubChem BioAssay AID1053208 (Peter MacCallum Cancer Centre, 2014)
Aim: 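Find knock-downs that sensitise mouse osteosarcoma cells to doxorubicin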 (primary screen). System: mouse osteosarcoma cells, early-passage culture from an engineered mouse model of fibroblastic bone tumour. Reagents: siRNA pool against mouse genes, 40 nM. Duration: about 120 h (48 h before drug, then 72 h with drug). Conditions: doxorubicin 100 nM for 72 h, roughly 30-40% inhibitory dose. Measurement: 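Luminescent ATP signal taken as viability with or without 100 nM doxorubicin for 72 h; mean of two wells set against non-targeting siRNA and turned into robust z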. Reading the numbers: viability z-score with doxorubicin: higher = more viable cells under doxorubicin; viability z-score without drug: higher = more viable cells with knock-down alone. Call rule: 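Called active if knock-down leaves viability unchanged without drug (z within -2 to 2) but lowers it with doxorubicin (z at or under -2)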.
Shown is an unselected part of about 17,000 reagents. 788 of all reagents (4.7%) were called active. 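Calls rest on z-score classes alone; an extra cut-off of viability at most 70% of control was not applied to them.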 Unmarked entries are inactive. Not all columns of the deposit are shown.

Gene | combined z-score class | viability z-score with doxorubicin | viability z-score without drug
Acot3 (GeneID 171281) | no change with or without drug | -0.22 | 0.67
Ngb (GeneID 64242) | no change with or without drug | 0.9 | 1.52
Cacna1s (GeneID 12292) | no change with or without drug | -0.22 | -0.17
Efcab12 (GeneID 212516) | no change with or without drug | 0 | 1.18
Tgfbr2 (GeneID 21813) | no change with or without drug | 0.45 | -0.84
Ldhd (GeneID 52815) | no change with or without drug | -0.22 | 0.17
Gja8 (GeneID 14616) | no change with or without drug | -0.9 | -0.51
Defb3 (GeneID 27358) | no change with or without drug | -0.22 | 0.17
Nap1l5 (GeneID 58243) | no change with or without drug | -1.57 | -0.17
Nifk (GeneID 67949) | no change with or without drug | -0.79 | -0.17
Tmprss11f (GeneID 243083) | no change with or without drug | 0.9 | 0.67
Tmem209 (GeneID 72649) | no change with or without drug | 0.45 | 0.17
Nutf2 (GeneID 68051) | no change with or without drug | 1.12 | -0.17
Gcfc2 (GeneID 330361) | no change with or without drug | -0.11 | -0.51
Hspbp1 (GeneID 66245) | no change with or without drug | 0.11 | 0.51
Ciao1 (GeneID 26371) | no change with or without drug | 0.45 | 0.51
Fbxo42 (GeneID 213499) | low cell count without drug only | -1.57 | -2.19
Usp9x (GeneID 22284) | high cell count without drug only | 0.22 | 2.36
Tmem86a (GeneID 67893) | no change with or without drug | -0.22 | 0.67
Nsun5 (GeneID 100609) | no change with or without drug | -0.67 | 0.17
Or8h9 (GeneID 258764) | no change with or without drug | 1.12 | 0
Fam25a (GeneID 69134) | low cell count with doxorubicin only (active) | -3.93 | -0.17
Crygb (GeneID 12965) | no change with or without drug | -0.45 | 1.18
5330438D12Rik (GeneID 327824) | high cell count with and without drug | 2.47 | 2.02
Fadd (GeneID 14082) | no change with or without drug | -0.56 | 0.67
9430077A04Rik (GeneID 320321) | low cell count with doxorubicin only (active) | -2.47 | 0.84
Hnrnpa3 (GeneID 229279) | no change with or without drug | 0 | -0.51
Tmem170 (GeneID 66817) | high cell count with doxorubicin only | 2.02 | 1.52
Otoa (GeneID 246190) | high cell count without drug only | 0.22 | 2.19
Bag4 (GeneID 67384) | no change with or without drug | 0.45 | 0.51
Vax2 (GeneID 24113) | no change with or without drug | -0.11 | -0.17
Ccl11 (GeneID 20292) | no change with or without drug | -0.45 | -1.52
Defb39 (GeneID 360214) | no change with or without drug | -0.45 | 0.84
Defb14 (GeneID 244332) | no change with or without drug | 0 | -0.17
Phtf1 (GeneID 18685) | no change with or without drug | 0 | -0.17
A330008L17Rik (GeneID 234624) | no change with or without drug | 0.67 | -0.67
Psg28 (GeneID 114871) | no change with or without drug | 1.01 | 1.35
Sgcd (GeneID 24052) | no change with or without drug | -0.67 | -0.84
Gm2716 (GeneID 100040328) | high cell count without drug only | 0.67 | 2.19
Ikzf3 (GeneID 22780) | high cell count without drug only | 1.35 | 2.53
Ppip5k2 (GeneID 227399) | no change with or without drug | -1.91 | -1.18
Serpina11 (GeneID 380780) | no change with or without drug | -0.9 | -0.17
Gpr45 (GeneID 93690) | no change with or without drug | -0.11 | 1.18
Pla2g2f (GeneID 26971) | low cell count with doxorubicin only (active) | -2.7 | 0.17
Atg7 (GeneID 74244) | no change with or without drug | -0.56 | -0.17
Emilin2 (GeneID 246707) | no change with or without drug | 0.34 | 1.18
G6pc2 (GeneID 14378) | no change with or without drug | 0.67 | -0.51
Skp2 (GeneID 27401) | no change with or without drug | -0.45 | 1.01
Lrrc10 (GeneID 237560) | low cell count without drug only | -1.8 | -2.19
Dnph1 (GeneID 381101) | no change with or without drug | 0.9 | 0.67
Eif3i (GeneID 54709) | low cell count with and without drug | -4.38 | -4.89
B3gnt5 (GeneID 108105) | no change with or without drug | 0.22 | 0.84
Adra1d (GeneID 11550) | low cell count without drug only | -1.12 | -3.88
Bmx (GeneID 12169) | no change with or without drug | -0.45 | 0.84
Psme2b (GeneID 621823) | no change with or without drug | 1.35 | 1.85
Tyro3 (GeneID 22174) | no change with or without drug | -1.12 | 0.17
4921536K21Rik (GeneID 67430) | low cell count with doxorubicin only (active) | -2.36 | 0.34
Arhgef18 (GeneID 102098) | low cell count with doxorubicin only (active) | -2.47 | -1.01
Mycbpap (GeneID 104601) | no change with or without drug | 0 | -0.17
Kdg4 (GeneID 66128) | no change with or without drug | 1.12 | -0.84
Fgf9 (GeneID 14180) | no change with or without drug | 0.56 | 0
Islr2 (GeneID 320563) | no change with or without drug | 0.79 | -0.34
Pfkfb2 (GeneID 18640) | no change with or without drug | -0.9 | -0.51
